Hit rate of the full screen: of about 320,000 compounds, about 22,000 (6.9%) were called active. This list was built around the results that the source calls inconclusive (neither active nor inactive); the mix of calls is not that of the screen. Calls come from the whole dose curve; as a rule, active = well fitted inhibition curve with a large enough effect; inconclusive = small, poorly fitted or top-dose-only effect, or another doubt; inactive = no such curve, though single readings can be large or run the other way. Potencies beside an inconclusive call are fits to weak or partial responses and may not hold up.
test: Primary qHTS for delayed death inhibitors of the malarial parasite plastid, 96 hour incubation; settings: P. falciparum luciferase reporter growth; series mostly up to 28.7 µM; activity change, negative = inhibition: at the top concentration
Summary of the method: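 Plates of compound plus infected erythrocytes (2% hematocrit, 0.05% parasitemia final) incubate 96 hours, 37 C, 5% CO2. Detection reagent added; reduced luminescence from the parasites' luciferase reporter flags inhibition.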
% is set by controls: 0 for no effect and ±100 for the full control effect; potency is the fitted concentration of half-maximal effect.

| SMILES | Potency | activity change, negative = inhibition |
| --- | --- | --- |
| Cn1c(SCC(=O)N2CCc3ccccc32)nc2cccnc21 | inconclusive: 13.1 µM [inhibitor, single point] |  |
| COc1ccc(/C=C/C(=O)NC(=S)NNC(=O)c2cnccn2)cc1 | inconclusive: 1.65 µM [inhibitor, full curve] |  |
| COc1cc(CNCCN2CCOCC2)ccc1OCc1cccc(Cl)c1 | active: 11.7 µM |  |
| COc1ccc(CC(=O)N(Cc2ccccc2)C(C)C)cc1 | inconclusive: 8.28 µM [inhibitor, single point] |  |
| CCOC(=O)N1CCN(Cc2ccc3c(c2)OCO3)CC1 | inconclusive: 10.4 µM [inhibitor, single point] |  |
| COc1ccc(COC(=O)CCS(=O)(=O)c2ccc(C)cc2)cc1F |  | inactive: 63.2% |
| COc1ccc(COc2cc(-c3cccc(OC)c3)nc3ccc(NC(=O)C(C)C)cc23)cc1 | inconclusive: 18.5 µM [inhibitor, single point] |  |
| CN1CCN(CCNC(=O)Nc2ccc([N+](=O)[O-])cc2)CC1 | inconclusive: 18.5 µM [inhibitor, single point] |  |
| COCCCn1c(SCC(=O)Nc2ccccc2F)nnc1-c1ccoc1C |  | inactive: 23.3% |
| Cc1ccc(S(C)(=O)=NS(=O)(=O)c2cccc3nsnc23)cc1 (stereo not given) |  | inactive: -19.8% |
| CC1CC(C)CN(CCOc2cccc3ccccc23)C1 (stereo not given) | inconclusive: 18.5 µM [inhibitor, single point] |  |
| O=C(c1ccc(S(=O)(=O)Nc2ccccc2)cc1)N1CCC1 |  | inactive: 2.85% |
| COc1ccc(-c2csc(N3CCN(c4cc(C)nc5ccccc45)CC3)n2)cc1OC | inconclusive: 16.5 µM [inhibitor, single point] |  |
| Cc1ccc(NC(=O)N2CCN(C(=O)C3CCCO3)CC2)cc1 (stereo not given) |  | inactive: 19.2% |
| CCOC(=O)Cn1c(=O)c2c(nc3n2CC(C)CN3Cc2ccccc2)n(C)c1=O (stereo not given) | inconclusive: 4.15 µM [inhibitor, partial curve] |  |
| O=C(c1ccc(=O)[nH]c1)N1CCN(S(=O)(=O)c2ccc(Cl)cc2)CC1 |  | inactive: 1.16% |
| Cc1cc(C)n2c(SCC(=O)N(C)C3CCCCC3)nnc2n1 | inconclusive: 0.117 µM [inhibitor, full curve, poor fit] |  |
| COc1ccc(Cl)cc1NC(=O)CN(C)C(=O)c1cc(=O)c2ccccc2o1 | inconclusive: 11.7 µM [inhibitor, single point] |  |
| COc1ccccc1CNC(=O)COc1ccc(C)nc1[N+](=O)[O-] | inconclusive: 18.5 µM [inhibitor, single point] |  |
| CCOC(=O)C(=O)Nc1ccc(OCc2ccccc2)cc1 |  | inactive: 19.3% |
| O=C(Nc1ccc(F)cc1)C(c1ccccc1)N1CCN(S(=O)(=O)c2ccccc2)CC1 (stereo not given) | inconclusive: 18.5 µM [inhibitor, single point] |  |
| CN(C)c1ccc(P(=S)(N(C)C)N(C)C)cc1 | inconclusive: 13.1 µM [inhibitor, single point] |  |
| CCc1cccc(C)c1NC(=S)NCC1CCN(c2ccc(OC)cc2)C1 (stereo not given) |  | inactive: -4.48% |
| CCCCC(=O)Nc1nc2ccc3nc(C)sc3c2s1 | active: 10.4 µM |  |

Shown in CSV form: 3 of the compounds above.
SMILES,Potency,"activity change, negative = inhibition"
COCCCn1c(SCC(=O)Nc2ccccc2F)nnc1-c1ccoc1C,,inactive: 23.3%
CC1CC(C)CN(CCOc2cccc3ccccc23)C1 (stereo not given),"inconclusive: 18.5 µM [inhibitor, single point]",
COc1ccccc1CNC(=O)COc1ccc(C)nc1[N+](=O)[O-],"inconclusive: 18.5 µM [inhibitor, single point]",

Further compounds.

| SMILES | Potency | activity change, negative = inhibition |
| --- | --- | --- |
| OCc1cn(-c2ccccc2)nc1-c1ccc(Br)cc1 | inconclusive: 11.7 µM [inhibitor, partial curve] |  |
| COc1cccc(C2=CC(c3cccs3)n3nnnc3N2)c1 (stereo not given) |  | inactive: 0.818% |
| COc1ccc(/C=C/c2cc[n+](C(=O)Cc3ccccc3)cc2)cc1 | inconclusive: 1.17 µM [inhibitor, full curve, poor fit] |  |
| CC1Cc2ccccc2N1Cc1cc(=O)c(OCC(=O)NCCc2ccccc2)co1 (stereo not given) | inconclusive: 13.1 µM [inhibitor, partial curve] |  |
| Cc1ccc(S(=O)(=O)N2CCOCC2)cc1C(=O)Nc1ccccn1 | inconclusive: 11.7 µM [inhibitor, single point] |  |
| COc1ccc2oc(=Nc3ccc(C(=O)O)cc3)c(C(=O)NCc3ccco3)cc2c1 | inconclusive: 0.294 µM [inhibitor, full curve, poor fit] |  |
| CCOC(=O)C1(Cc2cccc(OC)c2)CCCN(S(=O)(=O)N(C)C)C1 (stereo not given) | inconclusive: 18.5 µM [inhibitor, single point] |  |
| COc1cccc(NC(=O)CSc2nc3ccsc3c(=O)n2-c2ccc(C(=O)O)cc2)c1 | inconclusive: 8.28 µM [inhibitor, partial curve, poor fit] |  |
| Nc1nc(N)c2cc(Sc3ccc4ccccc4c3)ccc2n1 | inconclusive: 0.0415 µM [inhibitor, full curve] |  |
| Cc1cccc(C(=O)N2CCCC(N3CCN(c4cccc(Cl)c4)CC3)C2)n1 (stereo not given) |  | inactive: -4.29% |
| CN(Cc1ccc(Cl)c(Cl)c1)C(=O)c1cccc(S(=O)(=O)N2CCN(Cc3ccccc3)CC2)c1 | inconclusive: 18.5 µM [inhibitor, single point] |  |
| Cc1ccc(Cc2cc(C)n[nH]c2=O)cc1 |  | inactive: 10.7% |
| O=C(Nc1ccccc1)Nc1nnc(SCc2ccc(Cl)cc2)s1 | inconclusive: 18.5 µM [inhibitor, single point] |  |
| Cc1ccc(O)c(NC(=O)c2ccccc2-c2ccccc2C(=O)O)c1 | inconclusive: 0.465 µM [inhibitor, full curve, poor fit] |  |
| COc1ccc(C2=CC(c3ccc(F)cc3)n3nnnc3N2)cc1 (stereo not given) | inconclusive: 14.7 µM [inhibitor, partial curve, poor fit] |  |
| Cc1cc2ccccn2c1C(C[N+](=O)[O-])c1ccc(N(C)C)cc1 (stereo not given) | inconclusive: 18.5 µM [inhibitor, partial curve, poor fit] |  |
| COc1cc(C(=O)N(Cc2ccc(F)cc2)C2CCS(=O)(=O)C2)cc(OC)c1OC (stereo not given) | active: 8.28 µM |  |
| CC(C)Cc1cc(C(=O)NCCCN2CCOCC2)no1 | inconclusive: 11.7 µM [inhibitor, partial curve, poor fit] |  |
| CN(C(=S)NC1CCCCC1)C1(c2ccccc2Cl)CCCCC1=O (stereo not given) | inconclusive: 14.7 µM [inhibitor, single point] |  |
| Cc1ccccc1OCC(=O)NCc1ccccc1 | active: 3.7 µM |  |
| Cc1c(C(=O)N2CCN(C(=O)c3ccco3)CC2)oc2c(Cl)cccc12 | inconclusive: 10.4 µM [inhibitor, partial curve, poor fit] |  |
| O=C(Cc1c[nH]c2ccccc12)NCc1ccncc1 |  | inactive: 2.04% |
| CC1=NN(c2ccccc2)C(=O)/C1=C\c1cn(CCC#N)nc1-c1ccc(Cl)cc1 | inconclusive: 18.5 µM [inhibitor, single point] |  |
| O=S1(=O)CCC(S(=O)(=O)N2CCCCCC2)C1 (stereo not given) | inconclusive: 13.1 µM [inhibitor, partial curve, poor fit] |  |

| SMILES | Potency | activity change, negative = inhibition |
| --- | --- | --- |
| O=C(NCCCn1ccnc1)/C(=C\c1cccnc1)NC(=O)c1cccc(Br)c1 |  | inactive: -1.24% |
| CN1C(=O)C(=O)/C(=C(/O)c2ccccc2)C1c1ccc([N+](=O)[O-])cc1 (stereo not given) | inconclusive: 9.28 µM [inhibitor, partial curve, poor fit] |  |
| CC1CCN(C(=O)CN(c2ccccc2)S(=O)(=O)N(C)C)CC1 | inconclusive: 0.828 µM [inhibitor, partial curve] |  |
| CC1CCN(CCC(=O)N2CCCc3c2c(=O)oc2ccc(O)cc32)CC1 |  | inactive: -4.53% |
| Cc1sc2nc(-c3ccc(Br)cc3)oc(=O)c2c1C |  | inactive: 161% |
| CCOC(CNC(=O)CN1C(=O)COc2ccc(S(=O)(=O)N3CC(C)CC(C)C3)cc21)OCC (stereo not given) | inconclusive: 8.28 µM [inhibitor, partial curve] |  |
| COc1ccccc1CNC(=O)CCCn1nc(C)c2c(C)n(-c3ccccc3)nc2c1=O | active: 11.7 µM |  |
| O=C1c2ccccc2C(=O)N1CCOc1ccc(F)cc1 | inconclusive: 18.5 µM [inhibitor, single point] |  |
| Cc1cccn2c(=O)c3cc(C(N)=S)c(=N)n(CCCOC(C)C)c3nc12 | inconclusive: 14.7 µM [inhibitor, single point] |  |
| CC(=O)/C=C1/SC(CC(=O)O)C(=O)N1c1ccccc1 (stereo not given) |  | inactive: 15.5% |
| Fc1ccccc1CN(CCN1CCOCC1)C(=S)Nc1ccccc1Cl | inconclusive: 18.5 µM [inhibitor, single point] |  |
| Cc1[nH]c2ccccc2c1C(=O)COC(=O)c1c(-c2ccccc2Cl)noc1C | inconclusive: 13.1 µM [inhibitor, partial curve] |  |
| COC(=O)c1oc2ccc(Br)cc2c1-n1cccc1 | inconclusive: 3.7 µM [inhibitor, partial curve, poor fit] |  |
| O=C(COC(=O)CNC(=O)c1ccccc1F)Nc1nnc(-c2ccccc2)o1 | inconclusive: 4.15 µM [inhibitor, partial curve, poor fit] |  |
| CC(C)(C)OC(=O)N[C@@H](Cc1ccccc1)C(=O)N1CCC(C(=O)N[C@@H](Cc2c[nH]c3ccccc23)C(=O)O)CC1 | inconclusive: 8.28 µM [inhibitor, partial curve, poor fit] |  |
| Cc1cc(C)c2c(n1)sc1c(O)cc(=O)[nH]c12 | active: 7.38 µM |  |
| Cc1ccc(N=C2CCCCCN2C)c(C#N)c1 | inconclusive: 8.28 µM [inhibitor, partial curve, poor fit] |  |
| COC(=O)c1[nH]c2ccc(Cl)cc2c1NC(=O)Oc1ccccc1 |  | inactive: 275% |
| CCN1CCN(C(CNS(=O)(=O)c2ccccc2)c2ccccc2)CC1 (stereo not given) |  | inactive: 1.86% |
| Cc1c(Br)cnn1C(C)C(=O)N1CCN(c2ccc(F)cc2)CC1 (stereo not given) | inconclusive: 18.5 µM [inhibitor, single point] |  |
| CCCCCNC(=O)CCn1c(=O)oc2ccccc21 | inconclusive: 0.0026 µM [inhibitor, full curve, poor fit] |  |
| O=C(Nc1cccc2c1CCCC2)c1ccco1 | inconclusive: 10.4 µM [inhibitor, single point] |  |

Source: PubChem BioAssay AID504834 (National Center for Advancing Translational Sciences (NCATS), 2011)
